Measurements taken from patent US20230312562A1, “TETRAHYDRO-3H-PYRAZOLO QUINOLONE AND TETRAHYDRO-3H-PYRROLO[3,2-F]QUINOLINE -CONTAINING COMPOUNDS AND USES THEREOF” (Purdue Research Foundation, priority 2020, published 2023).
Some entries share one result that the patent states for a list of compounds. Marks after values point to notes of the source that are not given here.

How the values were obtained:
Format in all cases: cell-based
[1] = test system: SF-295; assay: NCI-60 sulforhodamine B assay, SF-295; details: SF-295, CNS, 48 h
Protocol: (§1) Compounds HSD1787, 22, 23 and 27 were sent to the National Cancer Institute (NCI), Bethesda, Maryland (Drug Evaluation Branch), to evaluate the effects of compounds on the NCI-60 cell panel. According to the NCI protocol, the compounds were evaluated at five concentrations (10-fold dilutions) with the highest concentration being 100 μM and the incubation period was 48 h. A sulforhodamine B assay was used to assay the effects of the compounds on the cancer cells. […] The most sensitive cell lines (total growth inhibition, TGI, could be achieved with concentrations less than 1 μM of some of the compounds) were MDA-MB-435 (melanoma), SF-539 (glioma), A498 (renal), MDA-MB-468 (breast), OVCAR-3 (ovarian), NCI-H522 (non-small cell lung cancer). On the other hand, UACC-257 and SK-MEL-28 (both melanoma), TK-10 (renal), OVCAR-4 (ovarian) and T-47D (breast) were resistant to the compounds as 10 μM could not cause total growth inhibition (Table 2). […]
(§2) According to the National Cancer Institute, Bethesda, Maryland (the protocol of the Drug Evaluation Branch), the effects of compounds are measured as follows: Cell suspensions are diluted to a target cell density of 5000-40,000 cells per well (based on cell growth characteristics) in a 96-well microtiter plates. The test compounds were evaluated at five concentrations (10-fold dilutions) with the highest concentration being 100 μM. […]

[2] = test system: Ovcar-8; assay: NCI-60 sulforhodamine B assay, Ovcar-8; details: Ovcar-8, ovarian, 48 h
Protocol: (§3) Compounds HSD1787, 22, 23 and 27 were sent to the National Cancer Institute (NCI), Bethesda, Maryland (Drug Evaluation Branch), to evaluate the effects of compounds on the NCI-60 cell panel. According to the NCI protocol, the compounds were evaluated at five concentrations (10-fold dilutions) with the highest concentration being 100 μM and the incubation period was 48 h. A sulforhodamine B assay was used to assay the effects of the compounds on the cancer cells. […] The most sensitive cell lines (total growth inhibition, TGI, could be achieved with concentrations less than 1 μM of some of the compounds) were MDA-MB-435 (melanoma), SF-539 (glioma), A498 (renal), MDA-MB-468 (breast), OVCAR-3 (ovarian), NCI-H522 (non-small cell lung cancer). On the other hand, UACC-257 and SK-MEL-28 (both melanoma), TK-10 (renal), OVCAR-4 (ovarian) and T-47D (breast) were resistant to the compounds as 10 μM could not cause total growth inhibition (Table 2). […] This is in line with current appreciation that tumor mutational burden and not necessarily the anatomical origin of the tumor determines treatment strategies or outcomes.
(§4) According to the National Cancer Institute, Bethesda, Maryland (the protocol of the Drug Evaluation Branch), the effects of compounds are measured as follows: Cell suspensions are diluted to a target cell density of 5000-40,000 cells per well (based on cell growth characteristics) in a 96-well microtiter plates. The test compounds were evaluated at five concentrations (10-fold dilutions) with the highest concentration being 100 μM. The incubation period was 48 h under 5% carbon dioxide atmosphere and 100% humidity. A sulforhodamine B assay was used to assay the cells. Optical densities of the wells were read by a plate reader the optical densities were processed into GI50 (the concentration that causes 50% growth inhibition).
(§5) The NCI renamed the IC50 value, the concentration of compound that causes 50% growth inhibition, as follows:
(§6) The control is the well not treated with test agent (https://dtp.cancer.gov/databases_tools/docs/compare/compare_methodology.htm).

[3] = test system: TK-10; assay: NCI-60 sulforhodamine B assay, TK-10; details: TK-10, renal, 48 h
Protocol: as §3, §4, §5, §6

[4] = test system: K-562; assay: NCI-60 sulforhodamine B assay, K-562; details: K-562, leukemia, 48 h
Protocol: as §3, §4, §5, §6

[5] = test system: Ovcar-4; assay: NCI-60 sulforhodamine B assay, Ovcar-4; details: Ovcar-4, ovarian, 48 h
Protocol: as §3, §4, §5, §6

[6] = test system: MCF7; assay: NCI-60 sulforhodamine B assay, MCF7; details: MCF7, breast, 48 h
Protocol: as §1, §2

[7] = test system: SK-MEL-28; assay: NCI-60 sulforhodamine B assay, SK-MEL-28; details: SK-MEL-28, melanoma, 48 h
Protocol: as §3, §4, §5, §6

[8] = test system: T-47D; assay: NCI-60 sulforhodamine B assay, T-47D; details: breast, 48 h
Protocol: as §3, §4, §5, §6

[9] = test system: UACC-257; assay: NCI-60 sulforhodamine B assay, UACC-257; details: UACC-257, melanoma, 48 h
Protocol: as §3, §4, §5, §6

[10] = test system: SR; assay: NCI-60 sulforhodamine B assay, SR; details: lymphoma, 48 h
Protocol: as §3, §4, §5, §6

Row | SMILES | TGI (total growth inhibition) [1] | TGI (total growth inhibition) [2] | TGI (total growth inhibition) [3] | TGI (total growth inhibition) [4] | TGI (total growth inhibition) [5] | TGI (total growth inhibition) [6] | TGI (total growth inhibition) [7] | TGI (total growth inhibition) [8] | TGI (total growth inhibition) [9] | TGI (total growth inhibition) [10]
1 | Nc1n[nH]c2ccc([C@@H]3Nc4c(F)cc5[nH]ncc5c4[C@H]4[C@@H]5CC[C@@H](C5)[C@H]43)cc12 (stereo in doubt) [Compound 22, 5-(5-fluoro-6,7,7a,8,9,10,11,11a-octahydro-3H-8,11-methanopyrazolo[4,3-a]phenanthridin-7-yl)-1H-indazol-3-amine] | > 10 µM | >10ª, >10^b, >10^c, >10^d μM | >10ª, >10^b, >10^c, >10^d μM | >10ª, >10^b, >10^c, >10^d μM | >10ª, >10^b, >10^c, >10^d μM | > 10 µM | >10ª, >10^b, >10^c, >10^d μM | >10ª, >10^b, >10^c, >10^d μM | >10ª, >10^b, >10^c, >10^d μM | >10ª, >10^b, >10^c, >10^d μM
2 | Nc1n[nH]c2cc(F)c([C@@H]3Nc4c(F)cc5[nH]ncc5c4[C@H]4[C@@H]5CC[C@@H](C5)[C@H]43)cc12 (stereo in doubt) [Compound 23, 6-Fluoro-5-(5-fluoro-6,7,7a,8,9,10,11,11a-octahydro-3H-8,11-methanopyrazolo[4,3-a]phenanthridin-7-yl)-1H-indazol-3-amine] |  | >10ª, >10^b, >10^c, >10^d μM | >10ª, >10^b, >10^c, >10^d μM | >10ª, >10^b, >10^c, >10^d μM | >10ª, >10^b, >10^c, >10^d μM |  | >10ª, >10^b, >10^c, >10^d μM | >10ª, >10^b, >10^c, >10^d μM | >10ª, >10^b, >10^c, >10^d μM | >10ª, >10^b, >10^c, >10^d μM
3 | Nc1n[nH]c2cc(F)c([C@@H]3Nc4ccc5[nH]ncc5c4[C@H]4[C@@H]5CC[C@@H](C5)[C@H]43)cc12 (stereo in doubt) [Compound 27, 6-Fluoro-5-(6,7,7a,8,9,10,11,11a-octahydro-3H-8,11-methanopyrazolo[4,3-a]phenanthridin-7-yl)-1H-indazol-3-amine] |  | >10ª, >10^b, >10^c, >10^d μM | >10ª, >10^b, >10^c, >10^d μM | >10ª, >10^b, >10^c, >10^d μM | >10ª, >10^b, >10^c, >10^d μM |  | >10ª, >10^b, >10^c, >10^d μM | >10ª, >10^b, >10^c, >10^d μM | >10ª, >10^b, >10^c, >10^d μM | >10ª, >10^b, >10^c, >10^d μM
4 | Nc1n[nH]c2ccc([C@@H]3Nc4ccc5[nH]ncc5c4[C@H]4C5CC[C@@H](C5)[C@@H]34)cc12 (stereo in doubt) [HSD1787, 5-(6,7,7a,8,9,10,11,11a-Octahydro-3H-8,11-methanopyrazolo[4,3-a]phenanthridin-7-yl)-1H-indazol-3-amine] | > 10 µM | >10ª, >10^b, >10^c, >10^d μM | >10ª, >10^b, >10^c, >10^d μM | >10ª, >10^b, >10^c, >10^d μM | >10ª, >10^b, >10^c, >10^d μM | > 10 µM | >10ª, >10^b, >10^c, >10^d μM | >10ª, >10^b, >10^c, >10^d μM | >10ª, >10^b, >10^c, >10^d μM | >10ª, >10^b, >10^c, >10^d μM
